Source: PMC11739509, “Transport and inhibition of the sphingosine-1-phosphate exporter SPNS2” (Nature Communications, 2025)
Results are given in words; binding and its absence hold for the method and conditions named. Tags and fused reporters may be left off the sequences shown.

Target: Spinster Homolog 2 (SPNS2), full-length human, tag-cleaved, detergent-solubilised (human) (UniProt Q8IVW8)
Test: SEC; Superdex 200 10/300 GL; 150 mM NaCl, 20 mM HEPES pH 7.5, 0.025% DDM or 0.002% LMNG; both purified

binding: no binding
B1: Spinster Homolog 2 (SPNS2), full-length human, tag-cleaved, detergent-solubilised (protein, UniProt Q8IVW8 1-549)
chain: MMCLECASAAAGGAEEEEADAERRRRRRGAQRGAGGSGCCGARGAGGAGVSAAGDEVQTLSGSVRRAPTGPPGTPGTPGCAATAKGPGAQQPKPASLGRGRGAAAAILSLGNVLNYLDRYTVAGVLLDIQQHFGVKDRGAGLLQSVFICSFMVAAPIFGYLGDRFNRKVILSCGIFFWSAVTFSSSFIPQQYFWLLVLSRGLVGIGEASYSTIAPTIIGDLFTKNTRTLMLSVFYFAIPLGSGLGYITGSSVKQAAGDWHWALRVSPVLGMITGTLILILVPATKRGHADQLGDQLKARTSWLRDMKALIRNRSYVFSSLATSAVSFATGALGMWIPLYLHRAQVVQKTAETCNSPPCGAKDSLIFGAITCFTGFLGVVTGAGATRWCRLKTQRADPLVCAVGMLGSAIFICLIFVAAKSSIVGAYICIFVGETLLFSNWAITADILMYVVIPTRRATAVALQSFTSHLLGDAGSPYLIGFISDLIRQSTKDSPLWEFLSLGYALMLCPFVVVLGGMFFLATALFFVSDRARAEQQVNQLAMPPASVKV
